At least one structure is not confirmed: it was looked up by name or label, or the drawing left a doubt.
Test system: obsessions and compulsions (Obsessive Compulsive Disorder)
Assay: Case report two: obsessive compulsive disorder symptoms
Format: in vivo, human
Settings: patient history before OMAX3

Cc1cc2c(s1)Nc1ccccc1N=C2N1CCN(C)CC1 [olanzapine]
response of obsessions and compulsions to prior treatment: recalcitrant to treatment

Reference: patent publication US20130213851A1, “OMEGA 3 FATTY ACID FORMULATIONS” (CENESTRA LLC., priority 2005, published 2013)
